Our source for the binding values is paper PMC10651131.

What all share (experiment): split reporter; trimolecular fluorescence complementation (TriFC): GFP (S1 to S9) fragment coexpressed with proteins fused to the S10 or S11 GFP fragments in HEK293T cells, epifluorescence 8 hours after transfection; in some panels an untagged third protein coexpressed
Assay [1] has as its target T1, megakaryoblastic leukemia 1 (MKL1), fused to the S10 or S11 GFP fragment (UniProt Q8K4J6).
T1 sequence: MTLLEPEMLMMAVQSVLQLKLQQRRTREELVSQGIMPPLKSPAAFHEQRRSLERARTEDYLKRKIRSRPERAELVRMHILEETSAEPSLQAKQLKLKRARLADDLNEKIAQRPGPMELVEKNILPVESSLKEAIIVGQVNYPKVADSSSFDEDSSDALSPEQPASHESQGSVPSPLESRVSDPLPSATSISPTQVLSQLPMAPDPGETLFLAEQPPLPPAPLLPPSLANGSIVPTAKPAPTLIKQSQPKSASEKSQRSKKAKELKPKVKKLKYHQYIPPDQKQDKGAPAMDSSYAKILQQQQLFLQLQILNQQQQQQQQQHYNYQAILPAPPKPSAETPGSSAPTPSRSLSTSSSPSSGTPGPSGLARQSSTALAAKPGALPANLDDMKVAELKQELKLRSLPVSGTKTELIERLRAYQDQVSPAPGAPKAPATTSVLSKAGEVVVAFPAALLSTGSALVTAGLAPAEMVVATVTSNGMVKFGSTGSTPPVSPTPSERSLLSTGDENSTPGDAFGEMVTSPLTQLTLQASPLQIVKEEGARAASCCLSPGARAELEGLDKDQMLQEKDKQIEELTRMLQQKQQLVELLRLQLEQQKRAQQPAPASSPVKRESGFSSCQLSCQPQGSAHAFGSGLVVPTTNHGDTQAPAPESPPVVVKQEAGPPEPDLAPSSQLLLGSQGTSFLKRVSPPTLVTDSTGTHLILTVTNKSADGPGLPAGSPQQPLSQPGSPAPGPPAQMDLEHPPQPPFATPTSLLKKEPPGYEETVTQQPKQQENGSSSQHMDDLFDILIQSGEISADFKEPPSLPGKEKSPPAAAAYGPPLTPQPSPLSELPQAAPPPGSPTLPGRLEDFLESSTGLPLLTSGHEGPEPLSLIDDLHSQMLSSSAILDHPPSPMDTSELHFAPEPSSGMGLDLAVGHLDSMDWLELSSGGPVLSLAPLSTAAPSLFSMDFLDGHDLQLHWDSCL

The target of assay [2] is T2, serum response factor (SRF), fused to the S10 or S11 GFP fragment (UniProt Q9JM73).
T2 sequence: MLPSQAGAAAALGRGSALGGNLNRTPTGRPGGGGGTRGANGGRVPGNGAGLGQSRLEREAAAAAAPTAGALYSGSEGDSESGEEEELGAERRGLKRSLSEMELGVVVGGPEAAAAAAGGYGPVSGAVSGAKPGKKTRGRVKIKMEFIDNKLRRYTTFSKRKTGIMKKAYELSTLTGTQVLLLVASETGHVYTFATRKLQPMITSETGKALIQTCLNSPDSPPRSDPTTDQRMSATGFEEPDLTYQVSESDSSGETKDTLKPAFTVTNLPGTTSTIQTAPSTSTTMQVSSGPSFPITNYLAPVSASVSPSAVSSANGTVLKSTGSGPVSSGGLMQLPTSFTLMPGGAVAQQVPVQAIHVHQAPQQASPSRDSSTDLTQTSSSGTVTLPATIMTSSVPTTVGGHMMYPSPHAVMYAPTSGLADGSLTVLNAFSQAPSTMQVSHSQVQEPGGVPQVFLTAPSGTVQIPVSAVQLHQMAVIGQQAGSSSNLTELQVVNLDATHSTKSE

Assay [3] concerns the target DNA binding domain of SRF, TriFC fusion.

No constants are given. Whether binding was seen depends on the method and setting. Binding seen in cells or lysates may run through a third protein. For part of these data: Binding calls can cover weak binding; strength is not graded here. Where a sequence is shown, tags or fusion partners need not be part of it.

For the molecule “TAD domain of SRF, TriFC fusion (domain or fragment)”, in assay [1], the binding result was “no binding”.
With “Zn-Finger domain of Bcl6, TriFC fusion (domain or fragment)”, the binding result in assay [2] is reported as “no binding”.

B1: megakaryoblastic leukemia 1 (MKL1), fused to the S10 or S11 GFP fragment (protein, UniProt Q8K4J6 1-964)
chain: MTLLEPEMLMMAVQSVLQLKLQQRRTREELVSQGIMPPLKSPAAFHEQRRSLERARTEDYLKRKIRSRPERAELVRMHILEETSAEPSLQAKQLKLKRARLADDLNEKIAQRPGPMELVEKNILPVESSLKEAIIVGQVNYPKVADSSSFDEDSSDALSPEQPASHESQGSVPSPLESRVSDPLPSATSISPTQVLSQLPMAPDPGETLFLAEQPPLPPAPLLPPSLANGSIVPTAKPAPTLIKQSQPKSASEKSQRSKKAKELKPKVKKLKYHQYIPPDQKQDKGAPAMDSSYAKILQQQQLFLQLQILNQQQQQQQQQHYNYQAILPAPPKPSAETPGSSAPTPSRSLSTSSSPSSGTPGPSGLARQSSTALAAKPGALPANLDDMKVAELKQELKLRSLPVSGTKTELIERLRAYQDQVSPAPGAPKAPATTSVLSKAGEVVVAFPAALLSTGSALVTAGLAPAEMVVATVTSNGMVKFGSTGSTPPVSPTPSERSLLSTGDENSTPGDAFGEMVTSPLTQLTLQASPLQIVKEEGARAASCCLSPGARAELEGLDKDQMLQEKDKQIEELTRMLQQKQQLVELLRLQLEQQKRAQQPAPASSPVKRESGFSSCQLSCQPQGSAHAFGSGLVVPTTNHGDTQAPAPESPPVVVKQEAGPPEPDLAPSSQLLLGSQGTSFLKRVSPPTLVTDSTGTHLILTVTNKSADGPGLPAGSPQQPLSQPGSPAPGPPAQMDLEHPPQPPFATPTSLLKKEPPGYEETVTQQPKQQENGSSSQHMDDLFDILIQSGEISADFKEPPSLPGKEKSPPAAAAYGPPLTPQPSPLSELPQAAPPPGSPTLPGRLEDFLESSTGLPLLTSGHEGPEPLSLIDDLHSQMLSSSAILDHPPSPMDTSELHFAPEPSSGMGLDLAVGHLDSMDWLELSSGGPVLSLAPLSTAAPSLFSMDFLDGHDLQLHWDSCL
Turning to B1, the binding result in assay [3] is on record as “binds”.
